Measured values from publication PMC9950432.
Results are given in words; binding and its absence hold for the method and conditions named. In cells and extracts the contact can be indirect. Some results given as binding are weak or reduced against the parent protein; the word gives no strength.

By UniProt entry, the sequences of proteins in these tests, tags left out. Residues count along the entry.
UniProt Q9NZQ7, residues 19-290: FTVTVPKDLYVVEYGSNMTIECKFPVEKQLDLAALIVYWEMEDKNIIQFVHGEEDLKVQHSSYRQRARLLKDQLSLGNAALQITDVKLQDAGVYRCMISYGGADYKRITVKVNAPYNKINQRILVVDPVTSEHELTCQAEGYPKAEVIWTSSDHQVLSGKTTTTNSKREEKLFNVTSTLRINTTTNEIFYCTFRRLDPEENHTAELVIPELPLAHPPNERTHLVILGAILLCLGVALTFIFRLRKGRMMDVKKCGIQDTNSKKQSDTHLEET
UniProt Q9EP73, residues 19-290: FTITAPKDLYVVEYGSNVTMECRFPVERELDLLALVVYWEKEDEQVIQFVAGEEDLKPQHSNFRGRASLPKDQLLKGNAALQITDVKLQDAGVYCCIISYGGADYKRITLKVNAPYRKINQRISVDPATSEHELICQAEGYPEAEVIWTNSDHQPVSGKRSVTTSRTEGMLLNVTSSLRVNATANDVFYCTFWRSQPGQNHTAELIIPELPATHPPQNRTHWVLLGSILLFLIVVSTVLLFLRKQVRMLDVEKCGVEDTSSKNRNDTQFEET

B1: ubiquitin-specific protease 8 (USP8), endogenous, human pancreatic cancer cells (enzyme, UniProt P40818 1-1118)
chain: MPAVASVPKELYLSSSLKDLNKKTEVKPEKISTKSYVHSALKIFKTAEECRLDRDEERAYVLYMKYVTVYNLIKKRPDFKQQQDYFHSILGPGNIKKAVEEAERLSESLKLRYEEAEVRKKLEEKDRQEEAQRLQQKRQETGREDGGTLAKGSLENVLDSKDKTQKSNGEKNEKCETKEKGAITAKELYTMMTDKNISLIIMDARRMQDYQDSCILHSLSVPEEAISPGVTASWIEAHLPDDSKDTWKKRGNVEYVVLLDWFSSAKDLQIGTTLRSLKDALFKWESKTVLRNEPLVLEGGYENWLLCYPQYTTNAKVTPPPRRQNEEVSISLDFTYPSLEESIPSKPAAQTPPASIEVDENIELISGQNERMGPLNISTPVEPVAASKSDVSPIIQPVPSIKNVPQIDRTKKPAVKLPEEHRIKSESTNHEQQSPQSGKVIPDRSTKPVVFSPTLMLTDEEKARIHAETALLMEKNKQEKELRERQQEEQKEKLRKEEQEQKAKKKQEAEENEITEKQQKAKEEMEKKESEQAKKEDKETSAKRGKEITGVKRQSKSEHETSDAKKSVEDRGKRCPTPEIQKKSTGDVPHTSVTGDSGSGKPFKIKGQPESGILRTGTFREDTDDTERNKAQREPLTRARSEEMGRIVPGLPSGWAKFLDPITGTFRYYHSPTNTVHMYPPEMAPSSAPPSTPPTHKAKPQIPAERDREPSKLKRSYSSPDITQAIQEEEKRKPTVTPTVNRENKPTCYPKAEISRLSASQIRNLNPVFGGSGPALTGLRNLGNTCYMNSILQCLCNAPHLADYFNRNCYQDDINRSNLLGHKGEVAEEFGIIMKALWTGQYRYISPKDFKITIGKINDQFAGYSQQDSQELLLFLMDGLHEDLNKADNRKRYKEENNDHLDDFKAAEHAWQKHKQLNESIIVALFQGQFKSTVQCLTCHKKSRTFEAFMYLSLPLASTSKCTLQDCLRLFSKEEKLTDNNRFYCSHCRARRDSLKKIEIWKLPPVLLVHLKRFSYDGRWKQKLQTSVDFPLENLDLSQYVIGPKNNLKKYNLFSVSNHYGGLDGGHYTAYCKNAARQRWFKFDDHEVSDISVSSVKSSAAYILFYTSLGPRVTDVAT
B2: ubiquitin-specific protease 8 (USP8), endogenous, mouse KPC cells (enzyme, UniProt Q80U87 1-1080)
chain: MPAVASVPKELYLSSSLKDLNKKTEVKPEKTSTKNYIHSAQKIFKTAEECRLDRDEERAYVLYMKYVAVYNLIKKRPDFKQQQDYYLSILGPANIKKAIEEAERLSESLKLRYEEAEVRKQLEEKDRREEEQLQQQKRQEMGREDSGAAAKRSVENLLDSKTKTQRINGEKSEGAAAAERGAITAKELYTMMMDKNTSLIIMDARKIQDYQHSCILDSLSVPEEAISPGVTASWIEANLSDDSKDTWKKRGSVDYVVLLDWFSSAKDLLLGTTLRSLKDALFKWESKTVLRHEPLVLEGGYENWLLCYPQFTTNAKVTPPPRSRAEEVSVSLDFTYPSLEEPVPSKLPTQMPPPPIETNEKALLVTDQDEKLRLSTQPALAGPGAAPRAEASPIIQPAPATKSVPQVDRTKKPSVKLPEDHRIKSENTDQSGRVLSDRSTKPVFPSPTTMLTDEEKARIHQETALLMEKNKQEKELWDKQQKEQKEKLRREEQERKAGKTQDADERDSTENQHKAKDGQEKKDSKQTKTEDRELSADGAQEATGTQRQSKSEHEASDAKVPVEGKRCPTSEAQKRPADVSPASVSGELNAGKAQREPLTRARSEEMGRIVPGLPLGWAKFLDPITGTFRYYHSPTNTVHMYPPEMAPSSAPPSTPPTHKVKPQVPAERDREPSKLKRSYSSPDITQALQEEEKRRPAVTPMVNRENKPPCYPKAEISRLSASQIRNLNPVFGGSGPALTGLRNLGNTCYMNSILQCLCNAPHLADYFNRNCYQDDINRSNLLGHKGEVAEEFGIIMKALWTGQYRYISPKDFKVTIGKINDQFAGSSQQDSQELLLFLMDGLHEDLNKADNRKRHKEENNEHLDDLQAAEHAWQKHKQLNESIIVALFQGQFKSTVQCLTCRRRSRTFEAFMYLSLPLASTSKCTLQDCLRLFSKEEKLTDNNRFYCSHCRARRDSLKKIEIWKLPPVLLVHLKRFSYDGRWKQKLQTSVDFPLENLDLSQYVIGPKNSLKKYNLFSVSNHYGGLDGGHYTAYCKNAARQRWFKFDDHEVSDISVSSVRSSAAYILFYTSLGPRITDVAT

Assays:
[1] = biological target: programmed death-ligand 1 (PD-L1), endogenous, human pancreatic cancer cells (human (endogenous in BxPC-3 and SW1990)) (UniProt Q9NZQ7); test: co-IP; endogenous proteins; cells lysed in IP/Western lysing solution (Beyotime P0013), immunoprecipitation according to the manufacturer's instructions, then western blotting with the indicated antibodies
[2] = biological target: programmed death-ligand 1 (PD-L1), endogenous, mouse KPC cells (mouse (endogenous in KPC)) (UniProt Q9EP73); test: as above

Binder	binding [1]	binding [2]
B1	binds	
B2		binds
